Measurements reported in the supplement of paper PMC12823440, “Inhibitors supercharge kinase turnover through native proteolytic circuits” (Nature, 2025).
Where a name gives a salt, the structure may show the parent alone. This is one part of the list. The calls rarely recur for the same compound in another form.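 Kinases, fused to nanoluciferase, were expressed in K562 cells; luminescence was measured every 4 h from 2 to 18 h as percent of control (DMSO = 100%, positive control = 0%). A time point is decreased if signal falls significantly (2 sigma). Hits were called by the authors by a rule that is not shown; the count of time points alone does not decide it.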

Protein sequences, listed by entry. Tags and fused reporters are not part of them. Lines headed by an entry give the natural chain unless they say otherwise; changes in a name come on top.
UniProt P07949, whole entry, looked up: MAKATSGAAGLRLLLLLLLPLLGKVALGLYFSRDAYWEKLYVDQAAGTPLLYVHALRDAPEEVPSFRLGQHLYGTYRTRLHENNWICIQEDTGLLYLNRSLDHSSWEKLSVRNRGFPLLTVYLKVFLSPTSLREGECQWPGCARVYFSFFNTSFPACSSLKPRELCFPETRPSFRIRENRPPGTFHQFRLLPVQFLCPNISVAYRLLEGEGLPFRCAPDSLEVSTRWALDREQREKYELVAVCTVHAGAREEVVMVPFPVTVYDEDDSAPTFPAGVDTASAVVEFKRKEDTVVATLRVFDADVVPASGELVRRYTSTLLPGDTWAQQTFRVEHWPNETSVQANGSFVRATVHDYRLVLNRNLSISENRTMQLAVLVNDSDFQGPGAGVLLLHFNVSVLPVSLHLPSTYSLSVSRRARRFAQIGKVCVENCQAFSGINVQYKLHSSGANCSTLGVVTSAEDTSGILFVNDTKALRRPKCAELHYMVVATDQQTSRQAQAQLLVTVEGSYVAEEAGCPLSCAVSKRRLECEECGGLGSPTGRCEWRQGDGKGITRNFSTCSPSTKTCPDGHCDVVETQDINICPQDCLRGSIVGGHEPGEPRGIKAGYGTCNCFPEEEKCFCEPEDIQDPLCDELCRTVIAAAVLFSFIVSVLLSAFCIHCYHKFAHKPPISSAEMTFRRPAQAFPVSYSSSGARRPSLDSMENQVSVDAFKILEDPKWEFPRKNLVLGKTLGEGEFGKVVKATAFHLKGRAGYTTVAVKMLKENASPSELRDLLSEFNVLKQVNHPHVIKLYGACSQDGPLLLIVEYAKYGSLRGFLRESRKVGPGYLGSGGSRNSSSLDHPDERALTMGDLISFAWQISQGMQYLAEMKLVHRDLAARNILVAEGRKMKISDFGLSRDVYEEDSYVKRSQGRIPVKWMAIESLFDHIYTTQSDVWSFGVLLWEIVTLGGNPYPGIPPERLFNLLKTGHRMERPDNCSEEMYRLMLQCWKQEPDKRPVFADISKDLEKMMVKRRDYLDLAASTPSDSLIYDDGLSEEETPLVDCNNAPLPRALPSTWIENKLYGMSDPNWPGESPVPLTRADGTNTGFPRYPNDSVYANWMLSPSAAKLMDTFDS
UniProt P07949, whole entry M918T, looked up: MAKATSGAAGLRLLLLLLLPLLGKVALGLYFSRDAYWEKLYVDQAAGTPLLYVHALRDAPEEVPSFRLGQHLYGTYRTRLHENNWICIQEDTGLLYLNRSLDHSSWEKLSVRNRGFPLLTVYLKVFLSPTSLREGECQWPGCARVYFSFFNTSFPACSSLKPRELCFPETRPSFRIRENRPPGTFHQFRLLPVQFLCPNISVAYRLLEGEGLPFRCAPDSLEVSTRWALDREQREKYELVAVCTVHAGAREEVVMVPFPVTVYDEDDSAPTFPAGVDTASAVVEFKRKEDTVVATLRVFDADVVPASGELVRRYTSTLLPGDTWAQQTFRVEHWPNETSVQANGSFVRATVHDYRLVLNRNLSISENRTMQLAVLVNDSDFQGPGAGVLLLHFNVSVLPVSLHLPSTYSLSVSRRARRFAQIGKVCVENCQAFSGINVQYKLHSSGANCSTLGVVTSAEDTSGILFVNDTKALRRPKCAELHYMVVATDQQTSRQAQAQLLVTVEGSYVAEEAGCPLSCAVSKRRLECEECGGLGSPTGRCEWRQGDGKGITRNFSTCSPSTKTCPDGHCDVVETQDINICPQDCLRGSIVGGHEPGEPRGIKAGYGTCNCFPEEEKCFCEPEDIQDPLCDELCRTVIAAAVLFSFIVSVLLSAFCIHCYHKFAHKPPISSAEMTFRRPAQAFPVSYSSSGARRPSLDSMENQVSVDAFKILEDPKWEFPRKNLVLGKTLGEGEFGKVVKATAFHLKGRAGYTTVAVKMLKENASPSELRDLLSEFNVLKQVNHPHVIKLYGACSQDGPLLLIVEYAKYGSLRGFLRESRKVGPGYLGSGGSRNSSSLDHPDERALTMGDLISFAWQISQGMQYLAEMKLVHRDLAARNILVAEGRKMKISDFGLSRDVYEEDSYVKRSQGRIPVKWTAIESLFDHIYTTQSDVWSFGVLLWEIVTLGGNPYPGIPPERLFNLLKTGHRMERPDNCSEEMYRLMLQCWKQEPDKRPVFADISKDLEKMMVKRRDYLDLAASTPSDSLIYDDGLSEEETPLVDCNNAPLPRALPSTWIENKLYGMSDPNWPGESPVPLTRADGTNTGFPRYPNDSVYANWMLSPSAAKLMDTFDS
UniProt Q01974, whole entry: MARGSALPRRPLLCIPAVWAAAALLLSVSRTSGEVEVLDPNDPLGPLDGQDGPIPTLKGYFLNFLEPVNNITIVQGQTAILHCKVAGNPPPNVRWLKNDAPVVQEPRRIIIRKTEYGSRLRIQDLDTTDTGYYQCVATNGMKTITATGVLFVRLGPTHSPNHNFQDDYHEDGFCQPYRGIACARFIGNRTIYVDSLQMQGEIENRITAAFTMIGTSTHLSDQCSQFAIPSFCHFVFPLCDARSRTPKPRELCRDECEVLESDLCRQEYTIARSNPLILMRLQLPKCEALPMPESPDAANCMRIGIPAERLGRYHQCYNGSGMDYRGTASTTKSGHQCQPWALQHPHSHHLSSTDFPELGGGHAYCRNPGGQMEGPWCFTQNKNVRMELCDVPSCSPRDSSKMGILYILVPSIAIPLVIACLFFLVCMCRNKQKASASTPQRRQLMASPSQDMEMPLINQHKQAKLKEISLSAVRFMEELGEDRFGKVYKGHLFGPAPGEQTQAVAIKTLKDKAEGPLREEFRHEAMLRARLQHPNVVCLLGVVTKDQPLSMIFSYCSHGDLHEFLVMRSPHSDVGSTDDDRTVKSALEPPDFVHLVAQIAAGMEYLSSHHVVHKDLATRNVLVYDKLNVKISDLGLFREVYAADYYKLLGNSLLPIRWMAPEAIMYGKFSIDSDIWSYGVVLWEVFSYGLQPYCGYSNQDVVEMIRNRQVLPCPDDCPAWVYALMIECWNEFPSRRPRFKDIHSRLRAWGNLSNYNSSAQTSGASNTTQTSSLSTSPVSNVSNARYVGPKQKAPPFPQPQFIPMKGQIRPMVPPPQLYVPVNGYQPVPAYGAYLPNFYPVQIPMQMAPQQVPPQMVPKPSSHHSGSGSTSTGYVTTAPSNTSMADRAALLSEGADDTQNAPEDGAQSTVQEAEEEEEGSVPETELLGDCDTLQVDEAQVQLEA
UniProt Q9NYA1, whole entry: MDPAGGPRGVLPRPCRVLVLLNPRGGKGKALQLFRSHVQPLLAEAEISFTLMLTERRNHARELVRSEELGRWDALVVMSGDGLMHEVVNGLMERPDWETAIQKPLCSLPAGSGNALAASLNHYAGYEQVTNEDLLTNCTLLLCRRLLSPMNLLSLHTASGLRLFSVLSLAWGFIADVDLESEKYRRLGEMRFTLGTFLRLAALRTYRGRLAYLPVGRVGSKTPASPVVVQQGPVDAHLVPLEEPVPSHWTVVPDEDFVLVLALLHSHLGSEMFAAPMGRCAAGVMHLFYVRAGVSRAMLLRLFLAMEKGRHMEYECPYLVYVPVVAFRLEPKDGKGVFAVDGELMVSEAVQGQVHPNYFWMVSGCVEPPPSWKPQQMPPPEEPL
UniProt Q9Y6E0: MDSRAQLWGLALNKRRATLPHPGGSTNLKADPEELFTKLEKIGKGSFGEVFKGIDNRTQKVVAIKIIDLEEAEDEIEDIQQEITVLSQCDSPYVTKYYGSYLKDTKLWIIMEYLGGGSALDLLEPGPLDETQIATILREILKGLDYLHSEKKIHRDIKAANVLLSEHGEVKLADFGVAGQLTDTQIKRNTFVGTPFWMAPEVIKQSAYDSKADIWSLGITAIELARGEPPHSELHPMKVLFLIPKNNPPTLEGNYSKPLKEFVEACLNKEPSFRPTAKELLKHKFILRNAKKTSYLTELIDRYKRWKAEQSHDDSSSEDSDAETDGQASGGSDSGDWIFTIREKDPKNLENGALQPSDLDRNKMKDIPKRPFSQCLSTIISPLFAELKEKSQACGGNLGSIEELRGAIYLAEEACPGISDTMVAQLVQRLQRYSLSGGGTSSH
UniProt Q15208: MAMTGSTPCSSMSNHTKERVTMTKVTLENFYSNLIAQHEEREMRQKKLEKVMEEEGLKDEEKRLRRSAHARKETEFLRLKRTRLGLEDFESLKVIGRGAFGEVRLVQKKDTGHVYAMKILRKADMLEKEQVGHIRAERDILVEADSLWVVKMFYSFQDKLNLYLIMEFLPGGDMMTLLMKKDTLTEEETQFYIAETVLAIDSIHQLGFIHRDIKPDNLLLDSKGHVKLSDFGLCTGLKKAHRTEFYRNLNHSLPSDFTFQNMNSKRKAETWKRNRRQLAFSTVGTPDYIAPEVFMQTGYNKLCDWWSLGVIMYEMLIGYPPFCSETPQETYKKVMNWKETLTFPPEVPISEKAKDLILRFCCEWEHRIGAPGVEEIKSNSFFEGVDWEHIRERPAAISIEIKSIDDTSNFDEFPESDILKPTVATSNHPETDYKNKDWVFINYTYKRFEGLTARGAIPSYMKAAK
UniProt P42680: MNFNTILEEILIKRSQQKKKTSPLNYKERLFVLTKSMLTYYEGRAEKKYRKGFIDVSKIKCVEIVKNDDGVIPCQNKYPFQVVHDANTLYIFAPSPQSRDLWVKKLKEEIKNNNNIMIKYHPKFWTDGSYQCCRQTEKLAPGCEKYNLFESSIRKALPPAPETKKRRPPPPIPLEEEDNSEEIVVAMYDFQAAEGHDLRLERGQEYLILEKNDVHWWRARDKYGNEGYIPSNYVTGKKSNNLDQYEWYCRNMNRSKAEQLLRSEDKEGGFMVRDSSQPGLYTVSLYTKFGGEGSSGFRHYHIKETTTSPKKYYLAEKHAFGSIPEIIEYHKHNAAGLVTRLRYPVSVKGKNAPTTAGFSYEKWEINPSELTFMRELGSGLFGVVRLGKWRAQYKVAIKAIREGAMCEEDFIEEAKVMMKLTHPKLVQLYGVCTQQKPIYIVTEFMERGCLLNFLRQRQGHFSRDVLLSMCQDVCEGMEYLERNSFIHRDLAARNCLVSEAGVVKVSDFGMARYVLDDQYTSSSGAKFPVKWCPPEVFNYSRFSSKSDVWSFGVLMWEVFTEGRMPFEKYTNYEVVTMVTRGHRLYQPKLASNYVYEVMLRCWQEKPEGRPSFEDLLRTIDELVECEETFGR
UniProt P29597: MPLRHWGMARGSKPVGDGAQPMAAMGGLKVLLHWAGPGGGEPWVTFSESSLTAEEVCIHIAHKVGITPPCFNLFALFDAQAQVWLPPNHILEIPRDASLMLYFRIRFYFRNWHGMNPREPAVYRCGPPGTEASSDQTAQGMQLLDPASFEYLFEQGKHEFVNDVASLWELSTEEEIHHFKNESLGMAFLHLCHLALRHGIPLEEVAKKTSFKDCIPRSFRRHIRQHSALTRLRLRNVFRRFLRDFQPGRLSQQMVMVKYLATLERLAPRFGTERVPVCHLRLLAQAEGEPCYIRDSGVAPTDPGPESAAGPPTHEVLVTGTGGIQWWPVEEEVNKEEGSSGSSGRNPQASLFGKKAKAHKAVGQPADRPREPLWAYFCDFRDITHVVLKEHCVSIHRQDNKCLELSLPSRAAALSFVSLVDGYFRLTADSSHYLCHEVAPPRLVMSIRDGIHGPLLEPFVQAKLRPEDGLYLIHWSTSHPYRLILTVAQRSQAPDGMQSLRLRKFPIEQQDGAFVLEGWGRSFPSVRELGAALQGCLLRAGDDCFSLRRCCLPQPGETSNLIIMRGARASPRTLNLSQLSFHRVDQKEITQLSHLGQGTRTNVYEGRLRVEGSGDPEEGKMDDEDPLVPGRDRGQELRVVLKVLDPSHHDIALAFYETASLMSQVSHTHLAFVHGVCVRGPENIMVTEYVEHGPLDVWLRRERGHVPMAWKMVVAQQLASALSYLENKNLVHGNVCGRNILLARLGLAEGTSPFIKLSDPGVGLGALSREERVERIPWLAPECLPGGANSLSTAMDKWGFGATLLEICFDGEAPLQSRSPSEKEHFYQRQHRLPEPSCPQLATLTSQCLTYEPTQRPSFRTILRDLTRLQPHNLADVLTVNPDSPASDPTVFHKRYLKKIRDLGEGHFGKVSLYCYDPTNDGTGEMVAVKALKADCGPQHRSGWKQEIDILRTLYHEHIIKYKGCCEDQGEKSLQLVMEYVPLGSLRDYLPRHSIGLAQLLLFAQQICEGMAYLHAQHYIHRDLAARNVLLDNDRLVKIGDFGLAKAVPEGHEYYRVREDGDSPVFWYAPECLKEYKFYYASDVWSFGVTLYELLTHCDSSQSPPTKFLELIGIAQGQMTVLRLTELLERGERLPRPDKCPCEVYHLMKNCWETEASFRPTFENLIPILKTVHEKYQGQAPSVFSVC

Key:
Experiment in all cases: number of time points (of 5) at which kinase-Nluc abundance scored as decreased, DMSO-normalised (count); higher = more persistent destabilization
Settings in all cases: K562; 2-18 h
PRKCA = PRKCA (UniProt P17252)
PTK2 = PTK2 (UniProt Q05397)
PTK2B = PTK2B (UniProt Q14289)
RAF1 = RAF1 (UniProt P04049)
[1] = biological target: RAF1_S257L (clone: RAF1_mut) (UniProt P04049)
RET = RET (UniProt P07949)
[2] = biological target: RET_M918T (clone: RET_mut) (UniProt P07949)
RIOK1 = RIOK1 (UniProt Q9BRS2)
RIPK1 = RIPK1 (UniProt Q13546)
RIPK2 = RIPK2 (UniProt O43353)
ROR2 = ROR2 (UniProt Q01974)
RPS6KA1 = RPS6KA1 (UniProt Q15418)
SPHK1 = SPHK1 (UniProt Q9NYA1)
SRC = SRC (UniProt P12931)
STK24 = STK24 (UniProt Q9Y6E0)
STK38 = STK38 (UniProt Q15208)
SYK = SYK (UniProt P43405)
TEC = TEC (UniProt P42680)
TYK2 = TYK2 (UniProt P29597)
ULK3 = ULK3 (UniProt Q6PHR2)

SMILES	number of time points (PRKCA)	number of time points (PTK2)	number of time points (PTK2B)	number of time points (RAF1)	number of time points [1]	number of time points (RET)	number of time points [2]	number of time points (RIOK1)	number of time points (RIPK1)	number of time points (RIPK2)	number of time points (ROR2)	number of time points (RPS6KA1)	number of time points (SPHK1)	number of time points (SRC)	number of time points (STK24)	number of time points (STK38)	number of time points (SYK)	number of time points (TEC)	number of time points (TYK2)	number of time points (ULK3)
O=C(Nc1ccccc1C(=O)NC1CCCCNC1=O)c1cc2ccccc2s1 (stereo not given) (10 µM)	0	0	0	0	0	0	0	0	0	0	0	0	0	0	0	0	0	0	0	0
CO[C@@H]1[C@H](N(C)C(=O)c2ccccc2)C[C@H]2O[C@]1(C)n1c3ccccc3c3c4c(c5c6ccccc6n2c5c31)C(=O)NC4 [Midostaurin] (2.5 µM)	0	0	0	2	0	0	0	0	2	1	0	0	0	0	0	1	0	0	3	4
CN1CCN(c2ccc(-c3ccncc3-c3cc(F)c(O)c(F)c3)cc2)CC1 (10 µM)	0	0	0	0	0	0	0	0	0	0	0	0	0	0	0	0	0	0	0	0
CNCc1ccccc1Sc1cccc2ccccc12 [IFN alpha-IFNAR-IN-1 (hydrochloride)] (10 µM)	0	0	0	2	4	0	0	2	0	2	0	0	0	0	0	2	0	1	3	0
CN(C)CCn1cc2cc(NC(=O)c3cccc(C(F)(F)F)n3)c(C(C)(C)O)cc2n1 (10 µM)	0	0	0	0	0	0	0	0	0	0	0	0	0	0	0	0	0	0	0	0
O=C(Nc1ccnc(NC(=O)C2CC2)c1)c1c(Cl)cccc1Cl (10 µM)	0	0	0	0	4	0	0	0	0	0	0	0	0	0	0	0	0	0	0	0
Nc1ccc(-c2cccc(C(=O)Nc3cnc4nc(N5CCOCC5)oc4c3)n2)cn1 (10 µM)	0	3	0	0	0	0	0	0	0	0	0	0	0	0	0	0	0	0	0	0
Cc1cnc(Cl)nc1-c1ccc(N(Cc2ccc(CNC(=O)C(F)F)cc2)C(=O)c2ccc(O)cc2O)cc1 (10 µM)	0	0	0	0	0	0	0	0	0	0	0	0	0	0	0	0	0	0	0	0
CCOc1cc(N2CCC(O)CC2)ccc1Nc1ncc2c(n1)N(C1CCCC1)CCC(=O)N2C (2.5 µM)	0	0	0	0	0	0	0	0	0	0	0	0	0	0	0	0	0	0	0	0
Oc1ccc(-c2cnc3ccc(NCc4ccco4)nn23)cc1 [IRAK inhibitor 2] (2.5 µM)	0	0	0	0	0	0	0	0	0	4	0	0	0	0	0	0	0	0	0	0
Nc1ccc(O)c(C(=O)O)c1 [5-Aminosalicylic Acid] (10 µM)	0	0	0	0	0	0	0	0	0	0	0	0	0	0	0	0	0	0	0	0
COC(=O)N1CCN(C2CCC(Nc3nc(Nc4cnn(C)c4)nc4ccc(CC#N)nc34)CC2)CC1 (stereo not given) (10 µM)	0	0	0	2	0	0	0	0	0	0	0	0	0	0	0	0	0	0	0	0
CCCCNc1ncc(C(=O)NCc2ccc(-n3ccnc3)cc2)c(NC2CCC(O)CC2)n1 (stereo not given) (10 µM)	0	0	0	0	0	0	0	0	0	0	0	0	0	0	0	0	0	0	0	0
CC(C)(CCCCCC(O)CCCCCC(C)(C)C(=O)O)C(=O)O [Bempedoic acid] (10 µM)	0	0	0	0	0	0	0	0	0	0	0	0	0	0	0	0	0	0	0	0
C=CC(=O)Nc1cc(Nc2nccc(-c3cn(C)c4ccccc34)n2)c(OCC(F)(F)F)nc1N(C)CCNC [AST5902  (trimesylate)] (2.5 µM)	0	0	2	0	1	0	0	0	1	0	0	0	0	0	0	1	0	0	0	4
CCCS(=O)(=O)N[C@H]1C[C@@H](N(C)c2ncnc3[nH]ccc23)C1 [Abrocitinib] (10 µM)	0	0	0	0	0	0	0	0	0	0	0	0	0	0	0	0	0	0	0	0
CN1CCN(Cc2ccc(-c3cnc4[nH]cc(-c5ccc6[nH]ccc6c5)c4c3)cc2)CC1 (2.5 µM)	0	0	0	0	4	0	0	0	0	0	0	0	0	0	0	0	0	0	0	1
N#Cc1cc(-c2ccnc(Nc3ccc(N4CCOCC4)cc3)n2)ccc1OC1CCOCC1 (10 µM)	0	3	0	0	0	0	0	0	0	0	0	0	0	0	0	0	0	0	0	0
NC(=O)c1c(NC(=O)C2CC2)sc2c1CCCC2 (10 µM)	0	0	0	0	0	0	0	0	0	0	0	0	0	0	0	0	0	0	0	0
CO/N=C1/C(c2c(O)[nH]c3cc(Cl)c(Cl)cc23)=Nc2ccccc21 (10 µM)	0	0	0	0	0	0	0	0	0	0	0	0	0	0	0	0	0	0	0	0
O=C1OC(COc2ccccc2[N+](=O)[O-])CC1Cc1ccccc1 (stereo not given) (10 µM)	0	0	0	0	0	0	0	0	0	0	0	0	0	0	0	0	0	0	0	0
CCC(F)(F)c1cc(N2CCC(S(C)(=O)=O)CC2)nc2sc(C(N)=O)c(N)c12 (10 µM)	0	0	0	0	0	0	0	0	0	0	0	0	0	0	0	0	0	0	0	0
CN(C)CCOc1cc(-c2cn[nH]c2)ccc1NC(=O)C1COc2ccccc2O1 (stereo not given) (10 µM)	0	0	0	0	0	0	0	0	0	0	0	0	0	0	0	0	0	0	0	0
CC(=O)O[C@@H]1[C@@H](OC(C)=O)[C@@H](O)[C@H](Oc2c(-c3ccc(O)cc3)oc3cc(O)cc(O)c3c2=O)O[C@H]1C (10 µM)	0	0	0	0	0	0	0	0	0	0	0	0	0	0	0	0	0	0	0	0
CC(C)(C)S(=O)(=O)c1cc2c(Nc3ccc4scnc4c3)ncnc2cc1OCCOP(=O)(O)O (2 µM)	0	0	0	0	0	0	0	0	0	4	0	0	0	0	0	0	0	0	0	0

Copied from above, six compounds:
SMILES	number of time points (PRKCA)	number of time points (PTK2)	number of time points (PTK2B)	number of time points (RAF1)	number of time points [1]	number of time points (RET)	number of time points [2]	number of time points (RIOK1)	number of time points (RIPK1)	number of time points (RIPK2)	number of time points (ROR2)	number of time points (RPS6KA1)	number of time points (SPHK1)	number of time points (SRC)	number of time points (STK24)	number of time points (STK38)	number of time points (SYK)	number of time points (TEC)	number of time points (TYK2)	number of time points (ULK3)
O=C(Nc1ccnc(NC(=O)C2CC2)c1)c1c(Cl)cccc1Cl (10 µM)	0	0	0	0	4	0	0	0	0	0	0	0	0	0	0	0	0	0	0	0
Nc1ccc(-c2cccc(C(=O)Nc3cnc4nc(N5CCOCC5)oc4c3)n2)cn1 (10 µM)	0	3	0	0	0	0	0	0	0	0	0	0	0	0	0	0	0	0	0	0
Cc1cnc(Cl)nc1-c1ccc(N(Cc2ccc(CNC(=O)C(F)F)cc2)C(=O)c2ccc(O)cc2O)cc1 (10 µM)	0	0	0	0	0	0	0	0	0	0	0	0	0	0	0	0	0	0	0	0
CCOc1cc(N2CCC(O)CC2)ccc1Nc1ncc2c(n1)N(C1CCCC1)CCC(=O)N2C (2.5 µM)	0	0	0	0	0	0	0	0	0	0	0	0	0	0	0	0	0	0	0	0
Oc1ccc(-c2cnc3ccc(NCc4ccco4)nn23)cc1 [IRAK inhibitor 2] (2.5 µM)	0	0	0	0	0	0	0	0	0	4	0	0	0	0	0	0	0	0	0	0
Nc1ccc(O)c(C(=O)O)c1 [5-Aminosalicylic Acid] (10 µM)	0	0	0	0	0	0	0	0	0	0	0	0	0	0	0	0	0	0	0	0
